Data: patent US6949349
These are yes or no findings as the source states them, for the method shown.

T1: IGFBP-1 (human, UniProt P08833 26-259)
T1 construct: Biotinylated in the ELISA assays; also called rhIGFBP-1
T1 sequence (looked up): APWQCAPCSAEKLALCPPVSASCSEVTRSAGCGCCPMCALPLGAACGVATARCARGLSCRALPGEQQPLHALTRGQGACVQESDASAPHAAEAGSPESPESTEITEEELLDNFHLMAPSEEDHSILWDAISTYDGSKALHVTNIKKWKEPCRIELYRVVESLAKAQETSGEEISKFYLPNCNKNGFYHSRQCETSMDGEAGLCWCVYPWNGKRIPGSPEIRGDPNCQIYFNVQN

B1: bp1-04 (peptide)
peptide: CRAGPLQWLCE
B2: bp1-17 (peptide)
peptide: CRAGPLQWLCEK

Target: T1, IGFBP-1
Test: ELISA competition, inhibition of IGFBP-1 binding to IGF-I

| Binder | binding |
| --- | --- |
| B1 | no binding (tested: IC50 (mut)/IC50 (wt) >1000) |
| B2 | no binding (tested: IC50 (mut)/IC50 (wt) >1000) |
